Experiment: general procedure: Fmoc solid-phase peptide synthesis; polystyrene resin cross-linked with 1% divinylbenzene with Rink linker; DIC/HOBt
Settings: whole synthesis, scale of the general procedure 1 g of Rink resin (0.6 mmol NH2/g resin)

With Ac-Tyr-Ile-{Ψ(CH2NH)}-Arg-Leu-Pro-NH2 as the substance, how does the “final purity (method not given)” value (HPLC) read?
The value was greater than 90%.

With Cyclo(Ser-Ida)-Ile-Arg-Leu-Ala-NH2 as the substance, how does the “final HPLC purity” value read?
Its value is greater than 95%.
